The results in this text go back to publication PMC10817943 (Nature Communications, 2024).

For the assay, the target named is T1, aaLeuC, isopropylmalate isomerase subunit LeuC from primary metabolism of A. awajinensis ATCC 33919 (Actinoplanes awajinensis ATCC 33919).
T1 sequence: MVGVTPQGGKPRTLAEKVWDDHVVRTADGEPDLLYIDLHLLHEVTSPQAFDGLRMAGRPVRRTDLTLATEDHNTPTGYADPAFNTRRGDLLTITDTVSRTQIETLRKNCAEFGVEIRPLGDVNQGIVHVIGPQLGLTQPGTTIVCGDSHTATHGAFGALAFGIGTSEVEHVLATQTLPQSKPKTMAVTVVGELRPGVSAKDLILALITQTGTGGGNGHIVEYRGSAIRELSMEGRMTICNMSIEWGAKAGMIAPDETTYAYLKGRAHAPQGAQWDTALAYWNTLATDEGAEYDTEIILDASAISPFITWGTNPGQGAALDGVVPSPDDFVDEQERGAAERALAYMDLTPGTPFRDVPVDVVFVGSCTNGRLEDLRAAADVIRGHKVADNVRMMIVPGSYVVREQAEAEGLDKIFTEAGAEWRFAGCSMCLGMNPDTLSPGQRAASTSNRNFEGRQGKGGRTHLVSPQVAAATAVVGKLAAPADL
The experiment in a line: co-purification; aaLeuC and MypLN co-expressed in E. coli from pACYCDuet-1 and purified together (Histrap column, desalting).

Results are given in words; binding and its absence hold for the method and conditions named. Binding seen in cells or lysates may run through a third protein. A result given as binding can be weak or reduced; the word gives no strength.

As for “MypLN, N-terminal isopropylmalate isomerase subunit (LeuD) homolog domain of MypL (Actinoplanes awajinensis ATCC 33919) (domain or fragment)”, the binding entry is “binds”.
